Measured values reported in patent US20160216259A1, “ISOTHERMAL TITRATION CALORIMETRY METHODS FOR EVALUATION OF THERMODYNAMIC BINDING PROPERTIES” (The Penn State Research Foundation, priority 2015, published 2016).
Where two headings read alike, the source gives them in different places. Marks after values point to notes of the source that are not given here.

What was measured:
[1] = Tricine pH 8.5, 25° C.; for ΔH1 / ΔH2: EDTA/DPTA mixture, 99% CI in parentheses; for ΔH: real-time evaluation from data at inflection points, continuous 7.2 μL/min
Experimental: The pH of these solutions was adjusted to 8.5 with 1 M NaOH solution. For the single independent binding site and two independent binding sites experiments, Tricine (20 mM) was used as a buffer solution. For the competitive binding site experiment, HEPES (20 mM) was used as a buffer solution.
The titrations were performed on a NanoITC (TA Instruments, New Castle, Del.) with gold cells with a cell volume of 1 mL. ITC experiments were carried out at 25° C. and the stirring speed was 250 rpm. For the single independent binding experiment, ligand of 20 mM in 100 μL syringe and for the competitive binding site and two independent binding sites model, ligand of 10 mM in 250 μL syringe were used. The injection rate was varied 1.7-10 μL/min for the continuous injection mode under setting tab in ITCRun software. During the equilibration, mass transfer of ligand at the tip of the injection syringe reduces the integrated heat of the first injection. The first data point for the incremental injection mode and data for the initial 10 μL of injection for the continuous injection mode is excluded for data fitting with binding models due to reduced amount of the heat flow.
By changing the concentration of EDTA and DPTA in the mixture, the various binding stoichiometry of the receptor, n and m, were simulated. […] The number of injections for the incremental injection mode experiment is 40 with an injection volume of 6 μL. Injection rate for the continuous injection mode is 7.2 μL/min.
The fit for the continuous injection method was done after 0.05 mM of ligand was injected. […] The positive peaks of the binding isotherms in the raw data (top) represent the exothermic heat of binding.

[2] = 1 mM EDTA + 4 mM BaCl2, HEPES pH 8.5, 25° C.
[3] = continuous injection 7.2 μL/min
[4] = incremental, 40 injections of 6 μL

| SMILES | ΔH1 [1, 3] | ΔH2 [1, 3] | ΔH1 [1, 4] | ΔH2 [1, 4] | ΔH ([1]; association of Ca^2+ and DPTA) | ΔH ([1]; association of Ca^2+ and EDTA) | ΔH ([2]; continuous injection 10 μL/min, 99% CI in parentheses) | ΔH ([2]; incremental, 20 injections of 10 μL, 99% CI in parentheses) | ΔH ([2]; real-time evaluation from data at inflection point, continuous injection 10 μL/min) [kcal/mol] | ΔH2 (Ba^2+ and EDTA, obtained independently by incremental injection, input for the competitive model) [kcal/mol] | ΔH (real-time evaluation from data at inflection point, continuous injection 1.7 μL/min, Tricine pH 8.5, 25° C.) [kcal/mol] |
| --- | --- | --- | --- | --- | --- | --- | --- | --- | --- | --- | --- |
| O.O.O.O.O=[N+]([O-])[O-].O=[N+]([O-])[O-].[Ca+2] [Ca(NO3)2, Calcium nitrate tetrahydrate] | −23.81 (−23.78, −23.83) kJ mol^−1 | −9.58 (−9.54, −9.62) kJ mol^−1 | −23.01 (−22.82, −23.21) kJ mol^−1 | −9.31 (−9.01, −9.40) kJ mol^−1 | −8.90^g kJ mol^−1 | −21.12^f kJ mol^−1 | −20.966 (−20.94, −20.99) kJ mol^−1 | −19.66 (−19.4, −19.9) kJ mol^−1 | -4.938 | – | – |
| [Ba+2].[Cl-].[Cl-] [BaCl2, barium chloride] | – | – | – | – | – | – | – | – | – | -3.482 | -5.055 |
